From PMC4459659
Results are given in words; binding and its absence hold for the method and conditions named. Binding seen in cells or lysates may run through a third protein. Some binding calls cover weakened binding; strength is not graded here.

Sequences of proteins named here, by UniProt entry; tags and fusion partners are left off. Residues count along the entry.
UniProt P05106, residues 27-788: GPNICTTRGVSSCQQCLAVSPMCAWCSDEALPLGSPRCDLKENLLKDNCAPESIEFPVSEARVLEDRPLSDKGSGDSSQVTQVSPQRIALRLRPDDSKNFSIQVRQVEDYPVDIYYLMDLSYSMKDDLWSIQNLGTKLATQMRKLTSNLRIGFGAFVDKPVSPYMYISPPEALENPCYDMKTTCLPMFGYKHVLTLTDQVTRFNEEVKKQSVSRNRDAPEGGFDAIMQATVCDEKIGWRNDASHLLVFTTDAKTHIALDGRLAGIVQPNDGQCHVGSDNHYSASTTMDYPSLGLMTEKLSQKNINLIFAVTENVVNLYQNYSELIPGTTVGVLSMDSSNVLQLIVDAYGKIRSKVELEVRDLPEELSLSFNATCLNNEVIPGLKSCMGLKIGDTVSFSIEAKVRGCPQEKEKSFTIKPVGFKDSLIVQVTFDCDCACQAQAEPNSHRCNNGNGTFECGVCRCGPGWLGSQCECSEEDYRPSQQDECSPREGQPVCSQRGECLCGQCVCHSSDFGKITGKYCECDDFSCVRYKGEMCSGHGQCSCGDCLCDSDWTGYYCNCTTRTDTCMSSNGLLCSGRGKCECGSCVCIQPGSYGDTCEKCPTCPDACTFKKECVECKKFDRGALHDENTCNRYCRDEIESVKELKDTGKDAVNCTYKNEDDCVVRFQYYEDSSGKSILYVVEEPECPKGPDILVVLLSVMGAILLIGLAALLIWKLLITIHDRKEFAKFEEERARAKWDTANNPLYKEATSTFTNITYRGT
UniProt P41240: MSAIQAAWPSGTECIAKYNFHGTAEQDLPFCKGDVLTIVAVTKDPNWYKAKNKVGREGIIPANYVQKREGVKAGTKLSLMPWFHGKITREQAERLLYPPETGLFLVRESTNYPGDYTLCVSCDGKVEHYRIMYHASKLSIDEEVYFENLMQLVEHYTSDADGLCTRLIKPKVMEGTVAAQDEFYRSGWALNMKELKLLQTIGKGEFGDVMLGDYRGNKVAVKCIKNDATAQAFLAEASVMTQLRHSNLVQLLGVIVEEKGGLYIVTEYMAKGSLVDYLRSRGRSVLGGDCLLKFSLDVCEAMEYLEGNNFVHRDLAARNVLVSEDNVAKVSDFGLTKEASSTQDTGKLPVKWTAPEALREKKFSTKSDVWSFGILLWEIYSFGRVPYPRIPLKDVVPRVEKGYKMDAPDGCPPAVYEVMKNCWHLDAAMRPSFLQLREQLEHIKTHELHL

Biological target: integrin β3 (human (endogenous in platelets)) (UniProt P05106)
Assay: co-IP; washed human platelets (pretreated with peptide or not), RIPA lysate, 4 °C; precipitated with anti-β3 antibody, blotted with anti-β3, anti-Src and anti-Csk antibodies

binding: binds
Substance: Csk (from UniProt P41240 1-450) (enzyme)
